Values joined by “and” are separate entries in the source; they are usually repeats but may differ in a detail not shown here. Identical values can stand only once. The list shows a part of the results. The main result of the screen is listed elsewhere. These columns were measured beside it and carry no call. The list favours compounds with an active or inconclusive main result. Words in brackets tell the shape of the fitted curve; partial curves, single points and poor fits give uncertain potencies.
Assay: qHTS Assay for Modulators of Lamin A Splicing
Conditions: HeLa LMNA splicing GFP/RFP minigene ratio, 48 h
Outline: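 S3 HeLa stable clones carrying a lamin A-EGFP splicing minigene plus DsRed2 were seeded at 600 cells/well in Opti-MEM with 2% FBS, pin-dosed and incubated 48 h at 37°C. Acumen cytometry (488 nm) gave the GFP/RFP total-intensity ratio.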

[1] = measured here: GFP splicing reporter channel
[2] = measured here: RFP viability control channel

CC(=O)N1CCN(c2ccc([N+](=O)[O-])cc2C#N)CC1
AC50 [1]: 0.0316 µM [falling, full curve, poor fit] | AC50 [2]: 20 µM [falling, partial curve, poor fit]

COc1ccc(Cl)cc1NC(=O)C/C(C)=N/NC(=O)Cc1ccccc1
AC50 [2]: 2 µM [falling, partial curve]

C/C=C/c1ccc(OCCOc2cc(C=O)ccc2OC)c(OC)c1
AC50 [1]: 22.4 µM [rising, single point] | AC50 [2]: 28.2 µM [rising, single point]

Oc1ccc(O)cc1
AC50 [1]: 28.2 µM [falling, partial curve, poor fit] and 4.47 µM [falling, full curve, poor fit] | AC50 [2]: 2.82 µM [falling, single point] and 7.94 µM [falling, partial curve]

CC(=O)c1cccc(NS(=O)(=O)c2ccc(N/C=C\C(=O)c3ccc(C)cc3)cc2)c1
AC50 [1]: 5.01 µM [rising, single point] | AC50 [2]: 7.08 µM [rising, partial curve, poor fit]

CCOC(=O)CSc1c(-c2ccc(Cl)cc2)[nH]c2ccccc12
AC50 [1]: 12.6 µM [rising, partial curve] | AC50 [2]: 22.4 µM [rising, single point]

Cc1ccc(-c2n[nH]c(=S)n2C)cc1
AC50 [1]: 8.91 µM [falling, partial curve, poor fit] | AC50 [2]: 12.6 µM [falling, partial curve]

O=C(CN1CCN(c2ccccc2F)CC1)Nc1ccc2c(c1)CCC2
AC50 [2]: 12.6 µM [rising, single point]

CO/N=C(\C(=O)O)c1csc(NN=C(C)C)n1
AC50 [2]: 11.2 µM [falling, partial curve, poor fit]

CCN(CC)S(=O)(=O)c1cccc(C(=O)NC(C(=O)Nc2nnc(C3CC3)s2)C(C)C)c1 (stereo unspecified)
AC50 [2]: 20 µM [rising, partial curve, poor fit]

CCCCn1c(=N)n(CC(O)COc2ccccc2)c2ccccc21 (stereo unspecified)
AC50 [1]: 8.91 µM [rising, partial curve] | AC50 [2]: 7.08 µM [rising, partial curve, poor fit]

Cc1ccc(Cn2cc(S(=O)(=O)c3ccc(C(C)C)cc3)c(=O)c3cc4c(cc32)OCO4)cc1
AC50 [2]: 1.78 µM [rising, full curve, poor fit]

N#CC1=C(N)N(c2ccccc2)C2=C(C(=O)CCC2)C1c1ccccc1 (stereo unspecified)
AC50 [2]: 4.47 µM [rising, partial curve, poor fit]

CCOC(=O)N1CCN(c2ccc(C(=O)c3cccc(F)c3)cc2)CC1
AC50 [2]: 31.6 µM [rising, single point]

Cc1ccc(-c2nnc(N3CCC(C)CC3)c3ccccc23)cc1
AC50 [2]: 14.1 µM [rising, partial curve, poor fit]

COc1cc2nc(N3CCN(C(=O)C4CCCO4)CC3)nc(N)c2cc1OC (stereo unspecified)
AC50 [2]: 0.112 µM [falling, full curve]

COc1ccc(Nc2nc(NCC3CCCO3)nc(N)c2[N+](=O)[O-])cc1 (stereo unspecified)
AC50 [1]: 35.5 µM [falling, single point] | AC50 [2]: 35.5 µM [falling, single point]

CO/N=C/CC(=O)c1cnc(-c2ccc(Cl)cc2)s1
AC50 [1]: 5.01 µM [falling, full curve] | AC50 [2]: 6.31 µM [falling, full curve]

CCN(CCCNC(=O)COc1cc(=O)n(C)c2ccccc12)c1cccc(C)c1
AC50 [1]: 12.6 µM [rising, single point] | AC50 [2]: 12.6 µM [rising, single point]

COc1cc(C=O)ccc1OCCCOc1ccc([N+](=O)[O-])cc1
AC50 [1]: 8.91 µM [rising, partial curve] | AC50 [2]: 14.1 µM [rising, partial curve]

C[C@H]1C[C@H]2[C@@H]3CCC4=CC(=O)C=C[C@]4(C)[C@@]3(Cl)[C@@H](O)C[C@]2(C)[C@@]1(O)C(=O)CO
AC50 [1]: 1 µM [rising, full curve, poor fit]

COc1ccccc1NS(=O)(=O)c1cc(NC(=O)CNC(=O)c2ccc(C)s2)ccc1Cl
AC50 [2]: 15.8 µM [rising, single point]

COc1ccc(S(=O)(=O)N2c3cc(Cl)ccc3Oc3nc4ccccc4nc32)cc1
AC50 [2]: 1.26 µM [rising, full curve]

Cc1ccc(Cl)cc1N1CCN(C(=O)Cn2ncc3c([nH]c4ccccc43)c2=O)CC1
AC50 [2]: 3.55 µM [falling, single point]

CCCCOC(=O)c1ccc(NS(=O)(=O)c2cc(-c3nnnn3CC)ccc2OC)cc1
AC50 [1]: 12.6 µM [rising, partial curve, poor fit] | AC50 [2]: 15.8 µM [rising, partial curve]

COc1cccc(-c2ccc3ncnc(Nc4ccccc4)c3c2)c1
AC50 [1]: 12.6 µM [falling, partial curve] | AC50 [2]: 15.8 µM [falling, single point]

Cc1ccc2nc(C)c(C(=O)N/N=C/c3cccc([N+](=O)[O-])c3)cc2c1
AC50 [1]: 8.91 µM [rising, partial curve, poor fit] | AC50 [2]: 14.1 µM [rising, partial curve, poor fit]

COCC(=O)Nc1ccc(S(=O)(=O)NCCc2ccccc2)cc1
AC50 [2]: 15.8 µM [rising, single point]

Clc1ccccc1-c1cncnc1NCCN1CCOCC1
AC50 [1]: 22.4 µM [falling, single point] | AC50 [2]: 15.8 µM [falling, single point]

S=c1[nH]nc(CSCc2ccc(Cl)cc2Cl)n1-c1ccccc1
AC50 [2]: 12.6 µM [rising, single point]

O=C1CS(=O)(=O)C2(C(=O)N(Cc3ccc(F)cc3)c3ccccc32)N1c1cccc(C(F)(F)F)c1 (stereo unspecified)
AC50 [2]: 8.91 µM [rising, partial curve]

O=C1C=C(NNC(=O)c2cccnc2)CC(c2ccco2)C1 (stereo unspecified)
AC50 [1]: 1.12 µM [rising, full curve, poor fit]

CCCC(=O)Nc1nnc(SCc2cc(=O)c3ccc(C)cc3[nH]2)s1
AC50 [2]: 0.0251 µM [falling, full curve, poor fit]

O=[N+]([O-])c1ccc(Oc2ccc(S(=O)(=O)Nc3ccccc3)cc2)cc1
AC50 [1]: 3.55 µM [rising, single point] | AC50 [2]: 20 µM [rising, single point]

COc1cccc(C(=O)NCC(=O)OCc2cc(=O)n3nc(C)sc3n2)c1
AC50 [2]: 0.891 µM [falling, full curve, poor fit]

Cc1ccc(NS(=O)(=O)c2cc(-c3n[nH]c(=O)c4ccccc34)ccc2C)cc1
AC50 [1]: 5.01 µM [rising, partial curve, poor fit] | AC50 [2]: 10 µM [rising, partial curve]

COC(=O)c1cc(N2C(=O)C3C(C2=O)C2(C)C=CC3(C)O2)ccc1Cl (stereo unspecified)
AC50 [1]: 35.5 µM [falling, single point]

CC1Cc2ccccc2N1C(=S)NC(=O)C1(C)CC1(Cl)Cl (stereo unspecified)
AC50 [1]: 0.0447 µM [rising, full curve] | AC50 [2]: 0.631 µM [rising, full curve]

O=C(NCCCn1ccnc1)C(=O)NCC1OCCCN1S(=O)(=O)c1ccc(F)cc1 (stereo unspecified)
AC50 [1]: 0.0355 µM [falling, full curve] | AC50 [2]: 0.0316 µM [falling, full curve, poor fit]

CC1CCN(S(=O)(=O)c2cccc(C(N)=O)c2)CC1
AC50 [1]: 2.51 µM [falling, partial curve, poor fit] | AC50 [2]: 0.0126 µM [falling, full curve, poor fit]

CSc1nc2ccc(Br)cc2[nH]1
AC50 [1]: 35.5 µM [falling, single point]

Cc1ccc(C2(CCN)CCOC(C(C)C)C2)cc1 (stereo unspecified)
AC50 [2]: 14.1 µM [rising, partial curve, poor fit]

COc1cccc(N2CCN(C(=O)CSc3ccc(F)cc3)CC2)c1
AC50 [2]: 5.62 µM [falling, single point]

CCOCCCNc1nc2c(C)cccn2c(=O)c1/C=C1\SC(=S)N(C(C)CC)C1=O (stereo unspecified)
AC50 [2]: 5.62 µM [rising, single point]

Cc1ccc(OCC(=O)Nc2ccc(C)c(S(=O)(=O)N3CCCCC3)c2)c([N+](=O)[O-])n1
AC50 [2]: 17.8 µM [rising, single point]

COc1ccc(/C=N/Nc2ccccn2)c(OC)c1OC
AC50 [1]: 0.631 µM [falling, full curve, poor fit]

Cc1ccsc1/C=C\C1=NCCCN1C
AC50 [1]: 10 µM [falling, single point] | AC50 [2]: 14.1 µM [falling, single point]

COc1cc(/C=N/NC(=O)CCN2CCN(Cc3ccccc3)CC2)cc(OC)c1OC
AC50 [2]: 0.562 µM [rising, partial curve]

O=S(=O)(NCc1cccs1)c1cccc(S(=O)(=O)N2CCCCC2)c1
AC50 [2]: 10 µM [rising, partial curve]

O=C(COc1ccc(Cl)cc1Cl)Nc1ccc2nc3n(c(=O)c2c1)CCCC3
AC50 [1]: 22.4 µM [rising, single point] | AC50 [2]: 35.5 µM [rising, single point]

CC1=Nc2ccccc2/C1=C\c1sc(Nc2ccc(C)cc2)nc1O
AC50 [1]: 0.891 µM [rising, full curve] | AC50 [2]: 0.891 µM [rising, full curve]

COc1ccc(-c2noc(N3CCC(C(=O)N4CCN(c5ccccn5)CC4)CC3)n2)cc1
AC50 [1]: 0.00891 µM [rising, full curve, poor fit] | AC50 [2]: 3.16 µM [rising, full curve]
